{"source": "PubChem BioAssay AID624297", "about": "(National Center for Advancing Translational Sciences (NCATS), 2012)", "note": "Out of some 340,000 compounds screened, about 6,200 (1.8%) were called active. The inconclusive results got no clear call from the source; some entries with a clear call stand among them for comparison. The call rests on the fitted dose curve; in most records, active means well fitted activation curve with a large enough effect; inconclusive means small, poorly fitted or top-dose-only effect; inactive means no such curve, though single readings can be large or run the other way. Where the call is inconclusive, the potency comes from a doubtful curve fit. Potency means the concentration at half of the fitted maximal effect."}
{"test": "A quantitative high throughput screen for small molecules that induce DNA re-replication in SW480 colon adenocarcinoma cells; further: nearly all actives have a fitted effect of over 55% in size; on re-replication activation: % of control where 0% means no effect.", "details": "Hoechst DNA content imaging, 48 h; re-replication activation: at 46.1 µM (top of the series) unless noted", "summary_of_the_method": "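Per well, 250 cells were exposed to pinned compound for 48 hr. Nuclear DNA was visualised with Hoechst (40 min, 37 C) and total object intensity recorded by fluorescence scanning.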"}
{"smiles": "OC(COC(c1ccc(Cl)cc1)c1ccc(Cl)cc1)CN1CCc2ccccc2C1", "note": "(centres undefined)", "Potency": "inconclusive: 16.4 µM [activator, single point]"}
{"smiles": "O=C(COC(=O)C1CCCCC1)NCc1ccc(Cl)cc1", "re-replication activation": "inactive: -0.876%"}
{"smiles": "O=c1c2ccccc2ncn1-c1ccc(Br)cc1[N+](=O)[O-]", "Potency": "active: 5.8 µM"}
{"smiles": "Cc1ccc(S(=O)(=O)N(Cc2ccccc2)c2ccccc2C(=O)N2CCCCC2)cc1", "Potency": "active: 18.4 µM"}
{"smiles": "Cc1ccc(NCCC(=O)c2ccc(Cl)c(Cl)c2)cc1", "Potency": "inconclusive: 20.6 µM [activator, single point]"}
{"smiles": "CCOc1ccccc1CN1CCN(Cc2cc3ccccc3[nH]2)CC1CCO", "note": "(centres undefined)", "Potency": "inconclusive: 29.1 µM [activator, partial curve, poor fit]"}
{"smiles": "COC(=O)C(Cc1c[nH]c2ccccc12)NC(=O)CNC(C)=O", "note": "(centres undefined)", "re-replication activation": "inactive: -5.32%"}
{"smiles": "N=C(N)c1ccc(Cl)cc1", "re-replication activation": "inactive: -10.7%"}
{"smiles": "C(=N\\n1cnnc1)/c1cn(-c2cccs2)nc1-c1ccccc1", "re-replication activation": "inactive: -2.68%"}
{"smiles": "COc1cccc(NC(=O)Cn2cc(C#N)c3ccccc32)c1", "re-replication activation": "inactive: -3.01%"}
{"smiles": "O=C(NC1CCCCC1)N(Cc1cc2cc3c(cc2[nH]c1=O)OCCO3)C1CCCCC1", "Potency": "inconclusive: 31.6 µM [activator, single point]"}
{"smiles": "Cc1ccc(-c2n[nH]c(=O)c3ccccc23)cc1S(=O)(=O)N(C)C", "re-replication activation": "inactive: -5.12%"}
{"smiles": "CC(C)C(NC(=O)COc1ccc2ccccc2c1)C(=O)N/N=C/C=C/c1ccccc1", "note": "(centres undefined)", "Potency": "inconclusive: 31.6 µM [activator, single point]"}
{"smiles": "NC(=O)CCSC(=S)N1CCOCC1", "Potency": "inconclusive: 0.411 µM [activator, full curve, poor fit]"}
{"smiles": "Cc1cc(NC(=O)c2ccc(NC(=O)C(C)Oc3ccccc3)cc2)no1", "note": "(centres undefined)", "Potency": "inconclusive: 5.17 µM [activator, single point]"}
{"smiles": "Cc1ccc(C(=O)/C=C/c2ccc(-c3ccccc3[N+](=O)[O-])o2)cc1", "re-replication activation": "inactive: -0.918%"}
{"smiles": "COC(=O)N1C(=O)[C@](Cc2ccccc2)(c2ccccc2)N1C(=O)OC", "Potency": "inconclusive: 29.1 µM [activator, single point]"}
{"smiles": "CN(C)NC(=S)Nc1ccc(S(=O)(=O)N2CCCCC2)cc1", "re-replication activation": "inactive: -128%"}
{"smiles": "COc1ccc(CN(C)C(=O)c2ccc3c(=O)n4c(nc3c2)CCC4)cc1", "Potency": "inconclusive: 29.1 µM [activator, single point]"}
{"smiles": "C/C(CC(=O)Nc1cccc2c1CCCC2)=N\\NC(=O)COc1ccccc1", "Potency": "inconclusive: 29.1 µM [activator, single point]"}
{"smiles": "Cc1ccc(CN2C(=O)[C@H]3Cc4c([nH]c5ccccc45)C(C)(C)N3C2=O)cc1", "Potency": "inconclusive: 29.1 µM [activator, single point]"}
{"smiles": "CC1CC(C)CN(C(=O)CCc2ccccc2)C1", "note": "(centres undefined)", "re-replication activation": "inactive: -1.66%"}
{"smiles": "COc1ccc(O[C@H]2C=C[C@@H](c3ccccc3)O[C@@H]2CO/N=C(\\C)CCN2CCc3nc(-c4ccccc4)c(-c4ccccc4)cc3C2)cc1", "Potency": "inconclusive: 25.9 µM [activator, single point]"}
{"smiles": "O=C(N/N=C/c1ccc2c(c1)OCO2)c1ccc(NS(=O)(=O)c2cccs2)cc1", "Potency": "inconclusive: 29.1 µM [activator, partial curve, poor fit]"}
{"smiles": "Nc1nc(-c2ccccc2)cn1/N=C/c1ccccc1", "Potency": "inconclusive: 29.1 µM [activator, single point]"}
{"smiles": "Cc1ccc(C(=O)NCCOc2cccc(C)c2)cc1", "re-replication activation": "inactive: -3.13%"}
{"smiles": "COc1ccc(S(=O)(=O)CCC(=O)N2CCN(c3ccc([N+](=O)[O-])cc3)CC2)cc1", "Potency": "inconclusive: 29.1 µM [activator, single point]"}
{"smiles": "Cn1c(=O)c2c(nc(Oc3cccc(Br)c3)n2C)n(C)c1=O", "re-replication activation": "inactive: -56.3%"}
{"smiles": "COc1cccc(N(CC(=O)NCCSc2ccccn2)S(=O)(=O)c2ccccc2)c1", "Potency": "inconclusive: 1 µM [activator, full curve, poor fit]"}
{"smiles": "COC(=O)N1c2ccccc2C=Cc2ccccc21", "Potency": "inconclusive: 16.4 µM [activator, single point]"}
{"smiles": "O=c1c2ccccc2nc(/C=C/c2cc(Br)ccc2O)n1CCO", "Potency": "inconclusive: 29.1 µM [activator, single point]"}
{"smiles": "COc1ccc(NC(=O)c2ccc(COc3ccccc3)o2)cc1", "Potency": "inconclusive: 32.6 µM [activator, partial curve, poor fit]"}
{"smiles": "CC(/C=N/NC(=O)c1nnn(-c2nonc2N)c1C(C)C)=C\\c1ccco1", "Potency": "inconclusive: 29.1 µM [activator, single point]"}
{"smiles": "CN(C)CCCN(C(=O)c1ccc(S(=O)(=O)N(C)Cc2ccccc2)cc1)c1nc2cc3c(cc2s1)OCO3", "Potency": "inconclusive: 29.1 µM [activator, single point]"}
{"smiles": "CCCCCc1ccc(C(=O)CCCC)c(=S)[nH]1", "Potency": "inconclusive: 20.6 µM [activator, single point]"}
{"smiles": "Cc1c(N)cc[n+](CC(=O)c2ccccc2)c1C", "Potency": "inconclusive: 29.1 µM [activator, single point]"}
{"smiles": "CCOc1ccccc1CNC(=O)CCC(=O)N1Cc2ccccc2Oc2ncccc21", "Potency": "inconclusive: 2.31 µM [activator, single point]"}
{"smiles": "Cn1nc(C(F)(F)F)c(/C=N/OC(=O)c2ccccc2)c1Sc1ccc(Cl)cc1", "Potency": "inconclusive: 25.9 µM [activator, partial curve, poor fit]"}
{"smiles": "Cc1nn(CC(=O)NCCCc2ccccc2)c(C)c1[N+](=O)[O-]", "re-replication activation": "inactive: 0.029%"}
{"smiles": "Cc1cccc(OCC(=O)NC2CCCc3ccccc32)c1C", "note": "(centres undefined)", "Potency": "inconclusive: 18.4 µM [activator, partial curve, poor fit]"}
{"smiles": "COc1ccc(C2N(C(C)=O)CCCN2S(=O)(=O)c2ccc(C)cc2)cc1", "note": "(centres undefined)", "Potency": "inconclusive: 0.224 µM [activator, full curve, poor fit]"}
{"smiles": "CCC(=O)N1CCC2(CC1)Oc1ccc(Cl)cc1C(=O)C21CC(c2ccc(Cl)cc2)=NO1", "note": "(centres undefined)", "re-replication activation": "inactive: 1.8%"}
{"smiles": "N#CC1=C(N)OC2=C(C(=O)CCC2)C1C1CC=CCC1", "note": "(centres undefined)", "Potency": "inconclusive: 0.116 µM [activator, full curve]"}
{"smiles": "CN(C)C(=O)CSc1n[nH]c(=O)n1CCc1ccccc1", "Potency": "inconclusive: 20.6 µM [activator, partial curve, poor fit]"}
